From paper PMC7819943, “Rice protein-binding microarrays: a tool to detect cis-acting elements near promoter regions in rice” come the findings set out here.

Amino acid sequences for entries named in this document (tags omitted).
UniProt Q0JBA9, entry or part of it: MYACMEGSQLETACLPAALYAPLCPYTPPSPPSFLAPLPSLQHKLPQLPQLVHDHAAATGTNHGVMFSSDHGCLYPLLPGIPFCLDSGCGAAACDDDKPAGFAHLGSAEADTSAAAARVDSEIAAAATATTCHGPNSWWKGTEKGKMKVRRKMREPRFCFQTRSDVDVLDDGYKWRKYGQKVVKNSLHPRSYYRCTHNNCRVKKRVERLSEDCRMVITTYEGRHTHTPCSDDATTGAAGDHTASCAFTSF

The list shows a part of the results.

This test addresses OsWRKY34 (Oryza sativa, UniProt Q0JBA9 1-250). The experiment in a line: protein-binding microarray (RPBM); PBS, 2% BSA, 51.3 ng/ul salmon testes DNA, 50 uM zinc acetate, 200 nM TF, 25 C, 1 h; high values mean tight binding. The note with it: protein: recombinant; tags: N-terminal polyhistidine and DsRed monomer fusion (pET32a); label: CyDye5-dUTP incorporated in the synthesized complementary strand; 3' TTTTT single-stranded linker to array surface; dsDNA, one strand shown. The essentials:
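The binding signal is fluorescence intensity per array feature (arbitrary units). Readings came from an Axon 4000B scanner after a washed, 2% BSA-blocked, double-stranded custom Agilent array had been incubated for 1 h at 25 °C with 200 nM protein and 50 µM zinc acetate. The protein was a Ni–NTA-purified transcription factor fused N-terminally to polyhistidine and DsRed, expressed in E. coli BL21-CodonPlus.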
Take “TTTAGATGATAGATCTATGGTCCAAATTGTCTTTTCTTTCCGGAGTCACCTAGTGCAG”: the binding signal is 8850 fluorescence intensity (a.u.).

As to “AAGCCGGCCAGCGCATTTCGCCCTTTCTTTCATGTTGACCCGGAGTCACCTAGTGCAG”, the binding signal was 8610 fluorescence intensity (a.u.).

For “ATGAGAAAAAGTCAACGACGTCGTCTATTAAAAAACGGTGCGGAGTCACCTAGTGCAG”, the binding signal is 10600 fluorescence intensity (a.u.).

Take “TGTTAGCTCAATTTTCCTCGGTTTCATAATCTATCCAATCCGGAGTCACCTAGTGCAG”: the binding signal was 9160 fluorescence intensity (a.u.).

Consider “CTCAGTTCCATCGCCTACTGCTTGATCTTGTAATCTTTGACGGAGTCACCTAGTGCAG”, for which the binding signal was 9090 fluorescence intensity (a.u.).

Consider “CTCTTGTCATTTCGGCCTATGCGTGTAACTTGTTTTATATCGGAGTCACCTAGTGCAG”, for which the binding signal is 8640 fluorescence intensity (a.u.).

With “CATTTAGGTCCCTTGCCGCCCTGTGGAAGGGCGATTTTTACGGAGTCACCTAGTGCAG”, the binding signal was 8250 fluorescence intensity (a.u.).

Turning to “TGTGTATGATTTTTTTATAAATTTTTTGGTGACATTTTTACGGAGTCACCTAGTGCAG”, the binding signal was 8420 fluorescence intensity (a.u.).

With “CCTGATCGCCTCCTCCGCCACCGCCGTGTTCGATTCGTCTCGGAGTCACCTAGTGCAG”, the binding signal is 9670 fluorescence intensity (a.u.).

For “GCCCATTCGCCCTCGCGCCGCGCCGCGCCGCCCGCCGCCGCGGAGTCACCTAGTGCAG”, the binding signal is 8970 fluorescence intensity (a.u.).

With “CTCAACTCAATCGCCCGCGCCTACCGTCGCCCTGCGCCGACGGAGTCACCTAGTGCAG”, the binding signal is 12400 fluorescence intensity (a.u.).

Turning to “TTGTTACTTTAATTTGTACATCATCATGCGGGTCCGTATACGGAGTCACCTAGTGCAG”, the binding signal was 16600 fluorescence intensity (a.u.).

On to “TGATTTATAGCAGCTAGTTGACTCTACTATTGGACTTGCTCGGAGTCACCTAGTGCAG”, for which the binding signal is 9210 fluorescence intensity (a.u.).

“CCACGCTCTCACTCCTCCACTCCACTCGTCGAGAAAAATGCGGAGTCACCTAGTGCAG”: the binding signal is 8490 fluorescence intensity (a.u.).

Regarding “GTTCGTGTCGATTTGACTGTGCGTGTCTCTTATGGAGTTTCGGAGTCACCTAGTGCAG”, the binding signal is 11900 fluorescence intensity (a.u.).

“GCTTCTTCTGTTCTGAAGCAGTGGCTTTTTGTGGTTTATGCGGAGTCACCTAGTGCAG”: the binding signal is 8250 fluorescence intensity (a.u.).

Consider “TAAGTGACTTATCTTTTTAATTTTTTTCATAAGTTTTTTACGGAGTCACCTAGTGCAG”, for which the binding signal was 8660 fluorescence intensity (a.u.).

For the sequence “ATCCTCGGCTGTTAAAGTTTGCTTCATACACGATCTGCTTCGGAGTCACCTAGTGCAG”, the binding signal is 9860 fluorescence intensity (a.u.).

For “ATCCTGAATTTGATTCCAACGTTTGTAACCGCCTCCAAATCGGAGTCACCTAGTGCAG”, the binding signal was 8110 fluorescence intensity (a.u.).

For the sequence “CACGCACGCATCTCAAAGCCACACACGCGTCTCCACAACACGGAGTCACCTAGTGCAG”, the binding signal is 8660 fluorescence intensity (a.u.).

On to “CAGTTCTTATCGTTATATTATTACTAAATAGTGTTCTTTTCGGAGTCACCTAGTGCAG”, for which the binding signal was 8630 fluorescence intensity (a.u.).

As to “TCAGCAGCAATGGCGATATCGTTGATTTCACGACCTGCTCCGGAGTCACCTAGTGCAG”, the binding signal was 11800 fluorescence intensity (a.u.).

Turning to “TACTTATCGAAATCTTCCGTCATCATCCACCCTTTTATAACGGAGTCACCTAGTGCAG”, the binding signal is 8790 fluorescence intensity (a.u.).

As to “GTCGAGTGTCAAAATGTGTGTGCTTTTCTGTAACTTGAACCGGAGTCACCTAGTGCAG”, the binding signal was 10200 fluorescence intensity (a.u.).

On to “AGATTTGCAATATATACTTACTGTCTTACTCACTGCATTTCGGAGTCACCTAGTGCAG”, for which the binding signal was 14500 fluorescence intensity (a.u.).

As for “TCTCTGGATTCGCTGTCCAGGGCTGCGCTTGTACACCTACCGGAGTCACCTAGTGCAG”, the binding signal is 8240 fluorescence intensity (a.u.).

For “CCCCGATTCTCCTCGCCCCGCCTCAGTCCAACGGTGCTCCCGGAGTCACCTAGTGCAG”, the binding signal was 8390 fluorescence intensity (a.u.).

Regarding “AACATACAGATTACCTGCTTTCTTCATTTCCGTGTTCAGCCGGAGTCACCTAGTGCAG”, the binding signal was 9210 fluorescence intensity (a.u.).

For the sequence “CTCTCATCTGCATCAGTATTCTTTTTATCAGATTTGCAGACGGAGTCACCTAGTGCAG”, the binding signal is 8370 fluorescence intensity (a.u.).

Consider “CTTGTTTGACTGACATATGGGTTCTGCATGTTTTGTTTTACGGAGTCACCTAGTGCAG”, for which the binding signal was 8330 fluorescence intensity (a.u.).

Turning to “TCTTCCCGCCTTTTTTTTCTTTGTTATTTTTCTTTTTTTTCGGAGTCACCTAGTGCAG”, the binding signal is 18000 fluorescence intensity (a.u.).

For the sequence “ATGCTCCACTGATCGTCTTCTACTTACTCCTCTTTCTTCCCGGAGTCACCTAGTGCAG”, the binding signal was 11900 fluorescence intensity (a.u.).

Regarding “CAAGCCCACAAATCAGCTTTAAATACCCTTTGATTTTTTCCGGAGTCACCTAGTGCAG”, the binding signal was 8220 fluorescence intensity (a.u.).

On to “ACCGAACACCCACGCCAGCCGCCGCGCGCTGCCGCCCCATCGGAGTCACCTAGTGCAG”, for which the binding signal was 12500 fluorescence intensity (a.u.).

For the sequence “CGTCTCCGCCGCCTTCCACGCCGCCCACGTCGCGCCGCACCGGAGTCACCTAGTGCAG”, the binding signal is 8710 fluorescence intensity (a.u.).

“TGCCTTCCTGCCTTCAAACTCGATCTCTCCTGTCTAATTTCGGAGTCACCTAGTGCAG”: the binding signal was 9520 fluorescence intensity (a.u.).

Turning to “AGCCGATCATTGTCATCTTATTGCCCTGCTTATTTCCAATCGGAGTCACCTAGTGCAG”, the binding signal is 9050 fluorescence intensity (a.u.).

“GATGGTGTTACTATTCTTGCATGTTTACCTTCCCTTGTTCCGGAGTCACCTAGTGCAG”: the binding signal was 14800 fluorescence intensity (a.u.).

“GTTAGAGACTAAATCAATACTTCATTCGTCCCATGATATTCGGAGTCACCTAGTGCAG”: the binding signal was 8060 fluorescence intensity (a.u.).

With “CTCCACCTCGCCGCGGCCGGGCGCGTACGCCGCCATGCTCCGGAGTCACCTAGTGCAG”, the binding signal was 8680 fluorescence intensity (a.u.).

Regarding “ACATGGTAGAACGACTCATCTTGGATGCTTCTTGACTCACCGGAGTCACCTAGTGCAG”, the binding signal was 8480 fluorescence intensity (a.u.).

As to “CAACCGCACTACTACTGTTTAGGCCCAAGGTCAACGTTGTCGGAGTCACCTAGTGCAG”, the binding signal was 9770 fluorescence intensity (a.u.).

Turning to “TCCTCTTAACTATAACTTATATTCAATTTATGTCTCTCGACGGAGTCACCTAGTGCAG”, the binding signal was 8140 fluorescence intensity (a.u.).

As for “CTCCCTCAATCTCTCTCTCTCTCTGCATAGATGCTGCTACCGGAGTCACCTAGTGCAG”, the binding signal is 10400 fluorescence intensity (a.u.).

For the sequence “CTTAGCTCGCTTTTATCTTTTCCGCTGCATTTGTAATCTTCGGAGTCACCTAGTGCAG”, the binding signal was 9020 fluorescence intensity (a.u.).

For “CTAGCCATACACTCCCTTTTTCTTTTCTGATATAGGGTTACGGAGTCACCTAGTGCAG”, the binding signal was 9920 fluorescence intensity (a.u.).

On to “GCTAATTAATATGTTTTCACAAGTATTCTCTAACAAAGACCGGAGTCACCTAGTGCAG”, for which the binding signal was 8090 fluorescence intensity (a.u.).

Regarding “ATCTAGGCACGAAGATTTTGCATTTTGTCACGGCTTTATACGGAGTCACCTAGTGCAG”, the binding signal was 8450 fluorescence intensity (a.u.).

Regarding “TTCATATCTGCTTTTTCCTATATATGTGTGTGTGACTGCACGGAGTCACCTAGTGCAG”, the binding signal is 9710 fluorescence intensity (a.u.).

“GCTGCCGCCGCCGCCGCCCCAGCCAACCCTATCCCGGCCCCGGAGTCACCTAGTGCAG”: the binding signal was 9470 fluorescence intensity (a.u.).

With “TAGTGGTAGTCTTGTGTTAGGGTTGTTGATTGCGCACGGACGGAGTCACCTAGTGCAG”, the binding signal was 10200 fluorescence intensity (a.u.).

Regarding “TTGGCCTCCACGACTACCACACCATCATCACCAAGCCCATCGGAGTCACCTAGTGCAG”, the binding signal is 9080 fluorescence intensity (a.u.).

As for “TGTCACCATCTTATCGCATCCCCAAGTTGCTAGTTGCTACCGGAGTCACCTAGTGCAG”, the binding signal was 8080 fluorescence intensity (a.u.).

As to “ATTTGAAGGGGTATTTTGGTCATTCTTCTAGAAACTTTCTCGGAGTCACCTAGTGCAG”, the binding signal was 9710 fluorescence intensity (a.u.).
